Where “and” joins values, the source holds several entries; their conditions need not be identical. Identical values can stand only once. The source gives many values for each of these; only a part stands here. Where a SMILES comes first, the peptide text is derived from it. The star is where a group is joined. Benzoyl(4-OMe) = COc1ccc(C(=O)*)cc1
System: SW480 cells
Experiment: xCELLigence RTCA-DP migration assay, SW480
Type: cell-based
Protocol: Real-time cell migration was evaluated using the xCELLigence RTCA-DP system (Roche). Briefly, SW480 cells were serum-starved for 8 h, digested, and resuspended in serum-free medium. The wells in the upper chamber of CIM plate 16 were preequilibrated with 30 μL serum-free medium for 1 h and filled with 100 μL of 4 × 10^4 serum-starved SW480 cells per well. The wells in the lower chamber of CIM plate 16 were filled with complete medium. […] Cell index values were detected every 15 min throughout the procedure, and the data were collected and analyzed with RTCA software (version 2.3).

COc1ccc(C(=O)N[C@@H](C)C(=O)NCC(=O)N[C@@H](CCC(=O)O)C(=O)N[C@@H](CO)C(=O)N[C@@H](CC(C)C)C(=O)N[C@@H](Cc2ccc(O)cc2)C(=O)N[C@@H](CCC(=O)O)C(N)=O)cc1 [MAI-516] ({Benzoyl(4-OMe)}-AGESLYE-NH2)
Cell index (50 μM, Time 22.62 h): 0.3561 and 0.3866 and 0.3429 and 0.3008 | Cell index (50 μM, Time 22.87 h): 0.3599 and 0.3932 and 0.3497 and 0.3016 | Cell index (50 μM, Time 23.12 h): 0.3651 and 0.3955 and 0.3493 and 0.3031 | Cell index (50 μM, Time 23.37 h): 0.3681 and 0.4 and 0.3523 and 0.3026 | Cell index (50 μM, Time 23.62 h): 0.3761 and 0.404 and 0.3595 and 0.3069 | Cell index (50 μM, Time 23.87 h): 0.3781 and 0.4107 and 0.3623 and 0.3088 | Cell index (50 μM, Time 24.13 h): 0.3852 and 0.417 and 0.3688 and 0.3143 | Cell index (50 μM, Time 24.38 h): 0.3926 and 0.4236 and 0.3847 and 0.3169 | Cell index (50 μM, Time 24.63 h): 0.4013 and 0.4296 and 0.3922 and 0.319 | Cell index (50 μM, Time 24.88 h): 0.4017 and 0.4354 and 0.3929 and 0.3231 | Cell index (50 μM, Time 25.13 h): 0.4117 and 0.4452 and 0.4003 and 0.3262 | Cell index (50 μM, Time 31.13 h): 0.5421 and 0.5962 and 0.5187 and 0.4382 | Cell index (50 μM, Time 31.38 h): 0.5467 and 0.6048 and 0.5227 and 0.4454 | Cell index (50 μM, Time 31.63 h): 0.5564 and 0.6132 and 0.5311 and 0.4518 | Cell index (50 μM, Time 31.88 h): 0.5605 and 0.6211 and 0.535 and 0.4572 | Cell index (50 μM, Time 32.13 h): 0.5688 and 0.6291 and 0.5408 and 0.4657 | Cell index (50 μM, Time 32.38 h): 0.5797 and 0.6341 and 0.5457 and 0.4727 | Cell index (50 μM, Time 32.63 h): 0.5878 and 0.6429 and 0.5572 and 0.4801 | Cell index (50 μM, Time 32.88 h): 0.5939 and 0.6521 and 0.5609 and 0.4862 | Cell index (50 μM, Time 33.13 h): 0.6022 and 0.6623 and 0.5714 and 0.4928 | Cell index (50 μM, Time 33.38 h): 0.6081 and 0.6729 and 0.5785 and 0.4987 | Cell index (50 μM, Time 33.63 h): 0.614 and 0.6806 and 0.5847 and 0.5044 | Cell index (50 μM, Time 33.88 h): 0.6215 and 0.6868 and 0.5924 and 0.5115 | Cell index (50 μM, Time 34.13 h): 0.6356 and 0.6923 and 0.6021 and 0.5177 | Cell index (50 μM, Time 34.38 h): 0.6401 and 0.7044 and 0.6053 and 0.5256 | Cell index (50 μM, Time 34.63 h): 0.6529 and 0.7124 and 0.6173 and 0.5306 | Cell index (50 μM, Time 34.88 h): 0.6619 and 0.7185 and 0.6246 and 0.5379 | Cell index (50 μM, Time 35.13 h): 0.667 and 0.728 and 0.6275 and 0.542 | Cell index (50 μM, Time 35.38 h): 0.6772 and 0.7373 and 0.635 and 0.5531 | Cell index (50 μM, Time 35.63 h): 0.685 and 0.7469 and 0.6437 and 0.5562 | Cell index (50 μM, Time 35.88 h): 0.6962 and 0.7542 and 0.6482 and 0.5646 | Cell index (50 μM, Time 36.13 h): 0.7058 and 0.7637 and 0.6585 and 0.5718 | Cell index (50 μM, Time 36.38 h): 0.7141 and 0.7728 and 0.6618 and 0.5758 | Cell index (50 μM, Time 36.63 h): 0.7247 and 0.7817 and 0.6744 and 0.5793 | Cell index (50 μM, Time 36.88 h): 0.7358 and 0.7874 and 0.6805 and 0.5893 | Cell index (50 μM, Time 37.13 h): 0.7419 and 0.7989 and 0.6897 and 0.5966 | Cell index (50 μM, Time 37.39 h): 0.7558 and 0.8061 and 0.7004 and 0.614 | Cell index (50 μM, Time 37.64 h): 0.7639 and 0.8156 and 0.7092 and 0.6216 | Cell index (50 μM, Time 37.89 h): 0.7743 and 0.8268 and 0.7188 and 0.6272 | Cell index (50 μM, Time 38.14 h): 0.7819 and 0.8407 and 0.7268 and 0.6361 | Cell index (50 μM, Time 38.39 h): 0.7946 and 0.8524 and 0.7366 and 0.6435 | Cell index (50 μM, Time 38.64 h): 0.8039 and 0.86 and 0.7448 and 0.6537 | Cell index (50 μM, Time 38.89 h): 0.8101 and 0.8739 and 0.7511 and 0.662 | Cell index (50 μM, Time 39.14 h): 0.8205 and 0.8857 and 0.7593 and 0.67 | Cell index (50 μM, Time 39.39 h): 0.8335 and 0.8934 and 0.7723 and 0.6807 | Cell index (50 μM, Time 39.64 h): 0.8442 and 0.9052 and 0.7809 and 0.6865 | Cell index (50 μM, Time 39.89 h): 0.854 and 0.9182 and 0.7888 and 0.6936 | Cell index (50 μM, Time 40.14 h): 0.8644 and 0.9311 and 0.7962 and 0.7011 | Cell index (50 μM, Time 40.39 h): 0.8773 and 0.9372 and 0.8045 and 0.7151 | Cell index (50 μM, Time 40.64 h): 0.8842 and 0.9485 and 0.8154 and 0.7203 | Cell index (50 μM, Time 40.89 h): 0.8938 and 0.9613 and 0.8235 and 0.7327 | Cell index (50 μM, Time 41.14 h): 0.9101 and 0.9751 and 0.8441 and 0.7441 | Cell index (50 μM, Time 41.39 h): 0.9146 and 0.989 and 0.8503 and 0.7519 | Cell index (50 μM, Time 41.64 h): 0.9298 and 0.9952 and 0.8604 and 0.7628 | Cell index (50 μM, Time 41.89 h): 0.9372 and 1.0089 and 0.8714 and 0.7698 | Cell index (50 μM, Time 42.14 h): 0.9444 and 1.0226 and 0.877 and 0.7789 | Cell index (50 μM, Time 42.39 h): 0.9589 and 1.0381 and 0.8905 and 0.786 | Cell index (50 μM, Time 42.64 h): 0.969 and 1.0469 and 0.8974 and 0.7965 | Cell index (50 μM, Time 42.89 h): 0.9779 and 1.0607 and 0.905 and 0.8034 | Cell index (50 μM, Time 43.14 h): 0.9925 and 1.0749 and 0.9143 and 0.8113 | Cell index (50 μM, Time 43.39 h): 1.0063 and 1.0897 and 0.9269 and 0.8241 | Cell index (50 μM, Time 43.64 h): 1.0187 and 1.1046 and 0.9395 and 0.8332 | Cell index (50 μM, Time 43.89 h): 1.0301 and 1.1202 and 0.9492 and 0.8507 | Cell index (50 μM, Time 44.14 h): 1.0418 and 1.1362 and 0.9606 and 0.8607 | Cell index (50 μM, Time 44.39 h): 1.0518 and 1.1501 and 0.9692 and 0.8706 | Cell index (50 μM, Time 44.64 h): 1.0682 and 1.1654 and 0.9859 and 0.8819 | Cell index (50 μM, Time 44.89 h): 1.08 and 1.1787 and 1.0032 and 0.8919 | Cell index (50 μM, Time 45.14 h): 1.0876 and 1.1878 and 1.0141 and 0.9033 | Cell index (50 μM, Time 45.39 h): 1.1067 and 1.2005 and 1.0361 and 0.9146 | Cell index (50 μM, Time 45.64 h): 1.1162 and 1.2055 and 1.0458 and 0.9251 | Cell index (50 μM, Time 45.89 h): 1.1262 and 1.2183 and 1.0621 and 0.9335 | Cell index (50 μM, Time 46.14 h): 1.1344 and 1.2352 and 1.0722 and 0.9429 | Cell index (50 μM, Time 46.39 h): 1.1499 and 1.2435 and 1.0822 and 0.9582 | Cell index (50 μM, Time 46.64 h): 1.1582 and 1.2674 and 1.0929 and 0.9721 | Cell index (50 μM, Time 46.89 h): 1.1772 and 1.2804 and 1.1062 and 0.9851 | Cell index (50 μM, Time 47.14 h): 1.1935 and 1.301 and 1.1224 and 0.9981 | Cell index (50 μM, Time 47.39 h): 1.2029 and 1.3188 and 1.1286 and 1.0124 | Cell index (MAI-516 50 μM, time 47.64 h, replicate wells, FigS10a): 1.2152 and 1.3376 and 1.1436 and 1.0218 | Cell index (MAI-516 50 μM, time 47.89 h, replicate wells, FigS10a): 1.2285 and 1.3503 and 1.1545 and 1.0396 | Cell index (MAI-516 50 μM, time 48.14 h, replicate wells, FigS10a): 1.2455 and 1.3567 and 1.1705 and 1.0522 | Cell index (MAI-516 50 μM, time 48.39 h, replicate wells, FigS10a): 1.2589 and 1.3707 and 1.1858 and 1.057 | Cell index (MAI-516 50 μM, time 48.64 h, replicate wells, FigS10a): 1.2746 and 1.3868 and 1.1999 and 1.0694
